Reference: paper PMC9561711
These are yes or no findings as the source states them, for the method shown. Binding seen in cells or lysates may run through a third protein. Some binding calls cover weakened binding; strength is not graded here.

The chains behind the UniProt entries cited, without tags or fusion partners.
UniProt P38398: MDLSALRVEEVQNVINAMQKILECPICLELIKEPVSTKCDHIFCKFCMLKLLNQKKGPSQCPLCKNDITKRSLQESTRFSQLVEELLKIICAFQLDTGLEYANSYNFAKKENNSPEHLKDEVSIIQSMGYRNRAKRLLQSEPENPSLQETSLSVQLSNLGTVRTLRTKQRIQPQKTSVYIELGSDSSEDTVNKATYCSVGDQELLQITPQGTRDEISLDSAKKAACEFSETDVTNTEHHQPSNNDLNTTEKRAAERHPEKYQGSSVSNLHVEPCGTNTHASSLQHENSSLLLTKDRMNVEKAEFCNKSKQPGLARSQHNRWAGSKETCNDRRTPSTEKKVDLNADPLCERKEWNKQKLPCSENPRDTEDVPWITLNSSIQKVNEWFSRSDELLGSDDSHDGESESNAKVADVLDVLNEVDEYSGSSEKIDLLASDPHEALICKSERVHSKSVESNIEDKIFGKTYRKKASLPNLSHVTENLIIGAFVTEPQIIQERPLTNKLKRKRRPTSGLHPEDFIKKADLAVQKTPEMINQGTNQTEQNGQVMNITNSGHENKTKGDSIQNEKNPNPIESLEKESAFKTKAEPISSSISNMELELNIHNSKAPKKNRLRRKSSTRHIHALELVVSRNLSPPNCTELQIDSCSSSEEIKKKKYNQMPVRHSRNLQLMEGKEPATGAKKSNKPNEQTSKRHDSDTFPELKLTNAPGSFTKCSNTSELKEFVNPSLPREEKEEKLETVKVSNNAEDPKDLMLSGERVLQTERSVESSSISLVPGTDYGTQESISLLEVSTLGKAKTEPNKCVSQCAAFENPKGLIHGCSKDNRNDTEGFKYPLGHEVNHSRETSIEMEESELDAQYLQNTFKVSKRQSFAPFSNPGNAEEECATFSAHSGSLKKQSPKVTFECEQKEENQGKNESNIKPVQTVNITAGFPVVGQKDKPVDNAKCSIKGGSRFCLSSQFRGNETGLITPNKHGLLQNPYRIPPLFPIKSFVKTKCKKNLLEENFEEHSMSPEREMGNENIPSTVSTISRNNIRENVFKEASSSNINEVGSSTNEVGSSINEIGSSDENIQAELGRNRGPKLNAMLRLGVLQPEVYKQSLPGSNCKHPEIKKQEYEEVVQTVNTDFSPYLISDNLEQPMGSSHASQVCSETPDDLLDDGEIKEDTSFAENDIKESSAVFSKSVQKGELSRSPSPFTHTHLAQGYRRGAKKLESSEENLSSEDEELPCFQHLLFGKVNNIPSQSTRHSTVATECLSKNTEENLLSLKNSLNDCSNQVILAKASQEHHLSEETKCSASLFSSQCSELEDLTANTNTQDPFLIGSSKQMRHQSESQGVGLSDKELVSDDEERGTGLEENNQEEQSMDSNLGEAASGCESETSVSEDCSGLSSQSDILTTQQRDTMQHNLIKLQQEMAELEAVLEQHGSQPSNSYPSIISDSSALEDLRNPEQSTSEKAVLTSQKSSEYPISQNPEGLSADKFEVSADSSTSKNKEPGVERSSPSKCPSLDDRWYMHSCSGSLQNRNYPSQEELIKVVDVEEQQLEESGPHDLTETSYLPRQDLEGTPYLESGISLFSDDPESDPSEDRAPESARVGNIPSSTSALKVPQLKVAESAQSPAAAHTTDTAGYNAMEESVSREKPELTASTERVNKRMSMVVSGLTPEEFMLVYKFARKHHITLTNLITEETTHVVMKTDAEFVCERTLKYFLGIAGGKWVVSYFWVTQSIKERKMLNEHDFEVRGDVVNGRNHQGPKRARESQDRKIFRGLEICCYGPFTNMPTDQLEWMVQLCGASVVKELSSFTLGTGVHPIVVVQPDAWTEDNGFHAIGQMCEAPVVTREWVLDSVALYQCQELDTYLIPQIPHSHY
UniProt Q15648: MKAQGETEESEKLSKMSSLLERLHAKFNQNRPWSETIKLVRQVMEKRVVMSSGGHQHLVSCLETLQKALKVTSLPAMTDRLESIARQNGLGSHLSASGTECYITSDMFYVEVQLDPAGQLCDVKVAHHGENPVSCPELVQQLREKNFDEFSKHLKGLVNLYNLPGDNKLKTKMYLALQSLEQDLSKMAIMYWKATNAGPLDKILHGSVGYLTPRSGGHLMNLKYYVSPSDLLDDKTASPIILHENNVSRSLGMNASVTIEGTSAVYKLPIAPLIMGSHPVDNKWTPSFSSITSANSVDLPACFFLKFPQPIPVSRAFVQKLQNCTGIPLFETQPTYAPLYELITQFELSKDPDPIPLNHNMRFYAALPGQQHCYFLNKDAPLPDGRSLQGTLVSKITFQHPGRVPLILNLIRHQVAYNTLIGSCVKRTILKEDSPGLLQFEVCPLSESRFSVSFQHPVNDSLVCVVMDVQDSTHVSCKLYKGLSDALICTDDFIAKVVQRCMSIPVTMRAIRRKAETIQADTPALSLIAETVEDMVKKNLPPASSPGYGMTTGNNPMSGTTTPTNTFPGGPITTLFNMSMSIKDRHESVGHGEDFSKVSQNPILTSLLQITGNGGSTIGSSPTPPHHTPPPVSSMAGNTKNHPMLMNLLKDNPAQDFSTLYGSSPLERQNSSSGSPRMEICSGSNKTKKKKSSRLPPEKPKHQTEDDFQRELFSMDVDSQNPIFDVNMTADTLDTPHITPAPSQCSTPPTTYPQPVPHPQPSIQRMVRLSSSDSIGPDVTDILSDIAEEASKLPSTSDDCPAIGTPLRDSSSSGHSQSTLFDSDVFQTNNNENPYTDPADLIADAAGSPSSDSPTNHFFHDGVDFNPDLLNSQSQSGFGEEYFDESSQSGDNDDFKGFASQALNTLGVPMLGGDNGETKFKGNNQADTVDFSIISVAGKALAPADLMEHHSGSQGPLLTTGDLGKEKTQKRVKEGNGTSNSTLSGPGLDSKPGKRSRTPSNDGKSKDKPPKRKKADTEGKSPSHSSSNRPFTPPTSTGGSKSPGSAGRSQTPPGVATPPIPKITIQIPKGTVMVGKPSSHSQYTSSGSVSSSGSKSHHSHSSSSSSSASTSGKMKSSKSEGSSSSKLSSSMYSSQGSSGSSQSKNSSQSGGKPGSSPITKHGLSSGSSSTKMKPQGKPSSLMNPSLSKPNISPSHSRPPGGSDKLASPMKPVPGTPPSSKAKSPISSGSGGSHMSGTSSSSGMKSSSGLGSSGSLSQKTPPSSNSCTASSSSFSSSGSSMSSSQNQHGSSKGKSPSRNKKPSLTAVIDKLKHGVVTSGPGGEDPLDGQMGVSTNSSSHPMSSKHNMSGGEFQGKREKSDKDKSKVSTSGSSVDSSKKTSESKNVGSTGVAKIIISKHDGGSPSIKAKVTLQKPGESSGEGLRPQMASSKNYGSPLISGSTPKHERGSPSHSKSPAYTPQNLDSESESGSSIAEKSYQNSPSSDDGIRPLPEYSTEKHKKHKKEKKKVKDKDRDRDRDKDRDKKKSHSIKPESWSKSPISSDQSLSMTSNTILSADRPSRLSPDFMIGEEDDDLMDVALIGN

Key:
[1] = target: BRCA1 (human (endogenous in U2OS)) (UniProt P38398); assay: condition: only in the presence of lambda-protein phosphatase, DNase, and RNase; co-IP; same IP of endogenous proteins from U2OS extracts, samples treated with lambda protein phosphatase, DNase I or RNase
[2] = target: BRCA1 (human (endogenous in U2OS)) (UniProt P38398); assay: co-IP; endogenous proteins; U2OS whole-cell extracts in RIPA buffer; IP with anti-BRCA1 or anti-MED1 antibodies or preimmune IgG, protein G Sepharose 4 Fast Flow; immunoblot

- binding [1]: no binding
- binding [2]: binds
Substance: Mediator complex subunit 1 (MED1) (from UniProt Q15648 1-1581)
